Laboratory results published in patent US20200109194A1.
No constants are given. Whether binding was seen depends on the method and setting. Some entries that bind do so weakly or less than the wild type.

Amino acid sequences for entries named in this document (tags omitted). A change or cut given only in a name is not applied to a line headed by its entry.
UniProt Q8IYR6: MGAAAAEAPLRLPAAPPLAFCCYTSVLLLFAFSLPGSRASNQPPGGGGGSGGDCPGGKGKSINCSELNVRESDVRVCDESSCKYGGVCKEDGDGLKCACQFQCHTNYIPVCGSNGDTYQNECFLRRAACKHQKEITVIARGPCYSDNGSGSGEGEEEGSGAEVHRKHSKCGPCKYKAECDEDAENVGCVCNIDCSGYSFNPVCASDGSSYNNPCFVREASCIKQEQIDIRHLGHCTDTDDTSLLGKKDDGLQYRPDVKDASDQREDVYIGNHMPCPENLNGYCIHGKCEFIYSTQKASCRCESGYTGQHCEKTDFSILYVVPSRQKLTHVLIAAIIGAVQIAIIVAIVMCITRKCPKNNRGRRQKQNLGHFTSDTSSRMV

Molecular target: human TMEFF1 extracellular domain recombinant protein (plasmid BBP377, S40-V330, C-terminal 8xHis) (human) (UniProt Q8IYR6)
Test: BLI (Octet Red), His-tagged TMEFF1 ECD and deletion mutants on anti-Penta-His biosensors, unpurified recombinant antibody

B1: M35hA10 (antibody, human IgG1, V domains shown)
VH: QVQLQESGPGLVKPSGTLSLTCAVSGGSISSSNWWSWVRQPPGKGLEWIGEIYHSGSTNYNPSLKSRVTISVDKSKNQFSLKLSSVTAADTAVYYCATMVRGRYYYYGMDVWGQGTTVTVSS
VL: DIVMTQSPLSLPVTPGEPASISCRSSQSLLHSDGYNFLDWYLQKPGQSPQFLIYLGSNRASGVPDRFSGVGSGTDFTLQISRVEAEDFGVYYCMQALQAPWTFGQGTKLEIK
Q: How did the binding turn out when B1 was run?
A: Its binding is “binds”.
